Laboratory results: publication PMC4792956
No constants are given. Whether binding was seen depends on the method and setting. In cells and extracts the contact can be indirect.

By UniProt entry, the sequences of proteins in these tests, tags left out. Where a name states a change or a piece, a line headed by the entry shows the natural chain unless it says otherwise.
UniProt Q13402: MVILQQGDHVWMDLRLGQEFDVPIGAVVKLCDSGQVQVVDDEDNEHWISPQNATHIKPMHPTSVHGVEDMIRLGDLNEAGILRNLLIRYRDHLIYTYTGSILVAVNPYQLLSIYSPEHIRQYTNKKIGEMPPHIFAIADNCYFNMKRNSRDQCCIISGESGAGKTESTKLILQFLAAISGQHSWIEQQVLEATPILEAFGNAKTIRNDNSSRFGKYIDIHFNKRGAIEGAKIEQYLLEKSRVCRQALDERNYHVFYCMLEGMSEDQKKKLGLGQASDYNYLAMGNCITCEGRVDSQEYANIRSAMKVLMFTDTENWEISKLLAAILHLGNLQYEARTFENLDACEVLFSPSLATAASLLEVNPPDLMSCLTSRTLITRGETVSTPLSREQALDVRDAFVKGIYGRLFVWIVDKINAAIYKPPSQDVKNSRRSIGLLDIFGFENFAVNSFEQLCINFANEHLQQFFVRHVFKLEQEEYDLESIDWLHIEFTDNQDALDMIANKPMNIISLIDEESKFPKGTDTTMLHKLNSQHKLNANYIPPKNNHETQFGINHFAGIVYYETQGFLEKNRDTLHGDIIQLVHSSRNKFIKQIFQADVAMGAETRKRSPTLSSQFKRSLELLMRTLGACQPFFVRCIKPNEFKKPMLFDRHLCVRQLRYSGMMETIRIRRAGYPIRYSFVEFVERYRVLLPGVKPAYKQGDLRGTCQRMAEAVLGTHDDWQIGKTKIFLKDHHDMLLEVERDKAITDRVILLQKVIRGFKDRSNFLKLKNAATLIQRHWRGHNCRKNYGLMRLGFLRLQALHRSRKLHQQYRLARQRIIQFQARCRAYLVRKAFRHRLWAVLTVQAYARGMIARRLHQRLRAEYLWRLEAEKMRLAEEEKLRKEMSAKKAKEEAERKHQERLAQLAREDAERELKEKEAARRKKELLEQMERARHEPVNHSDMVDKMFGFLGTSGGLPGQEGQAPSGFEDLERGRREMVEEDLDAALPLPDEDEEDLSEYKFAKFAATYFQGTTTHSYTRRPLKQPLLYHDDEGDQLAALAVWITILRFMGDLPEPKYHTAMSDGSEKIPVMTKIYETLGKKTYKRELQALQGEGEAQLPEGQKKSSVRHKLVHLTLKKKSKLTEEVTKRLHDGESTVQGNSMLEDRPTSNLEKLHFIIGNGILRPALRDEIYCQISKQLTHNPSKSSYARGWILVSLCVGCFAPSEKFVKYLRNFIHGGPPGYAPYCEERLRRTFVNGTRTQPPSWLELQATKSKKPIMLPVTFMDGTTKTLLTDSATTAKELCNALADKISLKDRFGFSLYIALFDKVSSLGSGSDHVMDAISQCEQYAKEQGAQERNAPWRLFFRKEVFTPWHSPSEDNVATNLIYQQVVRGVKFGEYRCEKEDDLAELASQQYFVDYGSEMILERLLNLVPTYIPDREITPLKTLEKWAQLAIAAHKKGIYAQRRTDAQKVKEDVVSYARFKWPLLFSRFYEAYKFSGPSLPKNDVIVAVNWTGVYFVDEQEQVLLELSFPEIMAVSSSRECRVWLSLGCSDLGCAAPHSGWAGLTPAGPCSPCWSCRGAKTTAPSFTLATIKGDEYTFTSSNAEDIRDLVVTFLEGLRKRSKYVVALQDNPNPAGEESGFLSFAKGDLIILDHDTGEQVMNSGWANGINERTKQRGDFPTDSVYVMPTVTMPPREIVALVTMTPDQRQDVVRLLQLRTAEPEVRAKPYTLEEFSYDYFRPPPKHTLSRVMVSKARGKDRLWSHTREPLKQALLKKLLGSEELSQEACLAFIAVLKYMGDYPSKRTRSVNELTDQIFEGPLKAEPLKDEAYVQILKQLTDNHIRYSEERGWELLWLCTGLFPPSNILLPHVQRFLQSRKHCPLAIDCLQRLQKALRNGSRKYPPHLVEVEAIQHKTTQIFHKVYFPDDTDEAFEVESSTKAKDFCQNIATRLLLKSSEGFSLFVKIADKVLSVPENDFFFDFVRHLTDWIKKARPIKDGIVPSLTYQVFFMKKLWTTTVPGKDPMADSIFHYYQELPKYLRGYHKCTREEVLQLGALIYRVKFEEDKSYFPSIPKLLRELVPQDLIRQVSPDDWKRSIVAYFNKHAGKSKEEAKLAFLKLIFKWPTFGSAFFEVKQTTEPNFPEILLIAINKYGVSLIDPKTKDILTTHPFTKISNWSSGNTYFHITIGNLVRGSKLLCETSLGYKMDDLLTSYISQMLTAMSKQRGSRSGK
UniProt P55211: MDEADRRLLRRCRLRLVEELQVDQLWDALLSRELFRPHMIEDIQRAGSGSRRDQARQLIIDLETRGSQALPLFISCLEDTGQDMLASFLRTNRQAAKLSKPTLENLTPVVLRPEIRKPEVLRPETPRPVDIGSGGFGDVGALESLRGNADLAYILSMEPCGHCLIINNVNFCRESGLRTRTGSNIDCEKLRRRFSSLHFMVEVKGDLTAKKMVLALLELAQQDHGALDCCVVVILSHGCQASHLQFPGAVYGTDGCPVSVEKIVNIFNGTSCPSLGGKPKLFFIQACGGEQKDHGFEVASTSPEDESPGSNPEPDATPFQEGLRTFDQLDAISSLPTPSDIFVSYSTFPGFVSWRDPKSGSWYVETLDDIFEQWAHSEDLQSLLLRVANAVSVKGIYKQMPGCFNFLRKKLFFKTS

Biological target: MYC-MYO7A (UniProt Q13402)
Experiment: co-IP; co-expressed in 293T cells; immunoprecipitation (α-MYC in Fig. 6a) followed by immunoblotting; lysis in 50 mM Tris pH 7.5, 150 mM NaCl, 0.1% Triton X-100, 10% glycerol, 1 mM EDTA

V5-CASP9 (from UniProt P55211) (enzyme) was tested, and the binding was “no binding”.
